# Experimental data: PubChem BioAssay AID504648 (National Center for Advancing Translational Sciences (NCATS), 2011)
# About 610 (0.16%) of roughly 390,000 compounds were called active. The shares of active, inactive and inconclusive entries below differ from those in the screen. The call rests on the fitted dose curve; in most records, active means well fitted inhibition curve with a large enough effect; inconclusive means small, poorly fitted or top-dose-only effect, or effect the other way, or another doubt; inactive means no such curve, though single readings can be large or run the other way. Where the call is inconclusive, the potency comes from a doubtful curve fit.
# Assay: Nrf2 qHTS screen for inhibitors: counterscreen for cytotoxicity
# Conditions: A549 ARE-Fluc cells, CellTiter-Fluor viability, 18-24 h; activity change, negative = cytotoxicity: at 46 µM (top of the series)
# How it was run: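 A549 ARE_Fluc cells in 5% FBS OPTI-MEM were exposed to compounds in concentration-response for 18-24 h at 37 deg C. Viability was read by CellTiter-Fluor fluorescence (Ex 405/Em 525) after 30 min, before the luciferase read.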
# On the % scale 0 is the no-effect control and ±100 the full control effect; potency means the concentration at half of the fitted maximal effect.
SMILES,Potency,"activity change, negative = cytotoxicity"
N=c1c(C(=O)NCC2CCCO2)cc2c(=O)n3ccccc3nc2n1Cc1ccccc1 (configuration not stated),"inconclusive: 23.1 µM [activator, partial curve, poor fit]",–
Cc1ccccc1C(=O)Nc1ccc(S(=O)(=O)N2CCC(c3nc4ccccc4s3)CC2)cc1,–,inactive: -0.908%
COc1ccc(OC)c(CCNC(=O)c2nc(-c3ccc(Cl)cc3)n3c2CCCCC3)c1,–,inactive: -14.7%
O=C(c1cccc(Cl)c1)N1CCN(CCCc2ccccc2)CC1,–,inactive: -5.61%
N#Cc1c(NC(=O)c2ccc(Cn3cc(Br)cn3)o2)sc2c1CCCCCC2,"inconclusive: 29.1 µM [falling, partial curve, poor fit]",–
Cc1ccc(C)c(N2CCN(C(=S)Nc3ccc4nc(N5CCN(C)CC5)cc(C)c4c3)CC2)c1,"inconclusive: 18.4 µM [falling, partial curve, poor fit]",–
COc1cc(C2CC(=O)Nc3cc4c(cc32)OCO4)cc(OC)c1O (configuration not stated),–,inactive: 1.61%
O=c1c2ccccc2nc(SCc2cn3ccsc3n2)n1-c1ccccc1F,"inconclusive: 29.1 µM [falling, partial curve, poor fit]",–
COc1cccc2c1C(=O)c1c(O)c3c(c(O)c1C2=O)CC(O)(C(C)=O)CC3OC1CC(O)C(O)C(C)O1 (configuration not stated),"inconclusive: 20.6 µM [falling, partial curve]",–
CNC(=O)c1ccc(-c2sc3nc(N4CCOCC4)c4c(c3c2N)CCCC4)o1,"inconclusive: 14.6 µM [activator, single point]",–
Cc1cccc(OC(=O)c2ccncc2)c1C,"inconclusive: 32.6 µM [activator, partial curve, poor fit]",–
COc1ccccc1[C@@]1(C)ON(c2ccccc2C(F)(F)F)C1=O,"inconclusive: 29.1 µM [falling, single point]",–
Cc1ccc(NS(=O)(=O)c2cc(C(=O)NCCSC3CCCCC3)ccc2C)cc1,"inconclusive: 29.1 µM [falling, partial curve, poor fit]",–
CC(=O)N1CCCc2ccc(NC(=O)c3ccc(OC(C)C)cc3)cc21,–,inactive: -12.2%
CCCNC(=O)Cn1c(=O)/c(=C/c2ccc(-c3ccc([N+](=O)[O-])cc3)o2)s/c1=C\C(=O)C(C)(C)C,"inconclusive: 10.3 µM [falling, partial curve, poor fit]",–
Cc1ccccc1S(=O)(=O)Cc1ccc(C(=O)N2CCN(c3cccc(C)c3C)CC2)o1,"inconclusive: 5.8 µM [falling, full curve]",–
COc1ccccc1NS(=O)(=O)c1cc(C(=O)N2CCCCCCC2)ccc1C,"inconclusive: 20.6 µM [falling, single point]",–

# Part of the list above in order of formula weight, smallest number first.
SMILES,Potency,"activity change, negative = cytotoxicity"
O=C(c1cccc(Cl)c1)N1CCN(CCCc2ccccc2)CC1,–,inactive: -5.61%
N=c1c(C(=O)NCC2CCCO2)cc2c(=O)n3ccccc3nc2n1Cc1ccccc1 (configuration not stated),"inconclusive: 23.1 µM [activator, partial curve, poor fit]",–
CCCNC(=O)Cn1c(=O)/c(=C/c2ccc(-c3ccc([N+](=O)[O-])cc3)o2)s/c1=C\C(=O)C(C)(C)C,"inconclusive: 10.3 µM [falling, partial curve, poor fit]",–
